# Results deposited as PubChem BioAssay AID504808 (Drosophila RNAi Screening Center, 2011)
# Screen: 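Fly genes required to hold E2F transcription in check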 (primary screen)
# Cell system: Drosophila S2 cells
# Reagent: long dsRNA against Drosophila genes
# Measurement: 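Dual luciferase plate measurements; E2F-specific signal taken as firefly over Renilla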
# Reading the numbers: E2F firefly: higher = more E2F reporter activity; Renilla normaliser: higher = more normaliser reporter signal
# Active means: 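a knock-down counted as active when the firefly/Renilla E2F signal rose above 50%, a threshold chosen arbitrarily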
# The deposit covers about 21,000 reagents; below is a random part of those with a known target gene and a result. Over the whole deposit, 18 (0.084%) were called active. 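Raw counts without plate normalisation, one of two replicates; the ratio scores behind the calls were not deposited.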 The numbers tell different reagents against one gene apart. Reagent sequences are not shown. Not stated in the record: the amount of reagent, the time to read-out.
Target gene,reagent no.,"E2F firefly, rep 1","Renilla normaliser, rep 1",Call
CG10702 (GeneID 35181),1,82268,3291,inactive
HDAC3 (GeneID 44446),1,64976,3524,inactive
Cdk2 (GeneID 42453),1,62695,2568,inactive
CG13842 (GeneID 42685),1,1.07e5,5467,inactive
MFS12 (GeneID 35745),1,3214,213,inactive
Gmap (GeneID 32483),1,8034,800,inactive
Gmap (GeneID 32483),2,1.41e5,6161,inactive
IFT57 (GeneID 33579),1,1.29e5,4980,inactive
NHP2 (GeneID 44005),1,1.48e5,7989,inactive
CG14739 (GeneID 41467),1,1.48e5,6295,inactive
Polr2F (GeneID 48312),1,72756,6431,inactive
Dnaaf3 (GeneID 37125),1,1.48e5,5284,inactive
CG7872 (GeneID 32493),1,7720,744,inactive
Paics (GeneID 32228),1,6906,856,inactive
CG1847 (GeneID 32144),1,8315,736,inactive
CG13024 (GeneID 39880),1,1.61e5,7948,inactive
CG16786 (GeneID 37856),1,1.18e5,4902,inactive
tous (GeneID 37582),1,82512,3363,inactive
Sgt (GeneID 35052),1,71659,3234,inactive
CG3792 (GeneID 33717),1,1.39e5,4951,inactive
CycB3 (GeneID 42971),1,99532,5209,inactive
CG3690 (GeneID 31047),1,1.14e5,5967,inactive
CG3690 (GeneID 31047),2,1.13e5,6670,inactive
mys (GeneID 44885),1,61104,4495,inactive
CG5087 (GeneID 39035),1,1.00e5,4142,inactive
CG13558 (GeneID 37719),1,97696,4497,inactive
CG32054 (GeneID 326185),1,1.23e5,6461,inactive
CG15202 (GeneID 32052),1,1.26e5,5758,inactive
CG11417 (GeneID 31083),1,1810,688,inactive
Hayan (GeneID 32831),1,1.55e5,6027,inactive
Cyp4ae1 (GeneID 31193),1,1838,856,inactive
CG42633 (GeneID 8674052),1,1.38e5,7214,inactive
trh (GeneID 38065),1,98257,4601,inactive
trh (GeneID 38065),2,97368,3677,inactive
Tim23 (GeneID 3355096),1,74569,4478,inactive
CG12674 (GeneID 33384),1,1.58e5,6685,inactive

6 entries already listed, sorted by “E2F firefly, rep 1”, descending.
Target gene,reagent no.,"E2F firefly, rep 1","Renilla normaliser, rep 1",Call
CG13024 (GeneID 39880),1,1.61e5,7948,inactive
CG3792 (GeneID 33717),1,1.39e5,4951,inactive
CG16786 (GeneID 37856),1,1.18e5,4902,inactive
tous (GeneID 37582),1,82512,3363,inactive
Sgt (GeneID 35052),1,71659,3234,inactive
CG1847 (GeneID 32144),1,8315,736,inactive

The listing continues.
Target gene,reagent no.,"E2F firefly, rep 1","Renilla normaliser, rep 1",Call
CG31176 (GeneID 42554),1,1.39e5,6709,inactive
CG31176 (GeneID 42554),2,1.33e5,7147,inactive
Atg13 (GeneID 40998),1,1.47e5,7510,inactive
Cyp4ac3 (GeneID 33756),1,94460,3717,inactive
Slob (retired record) (GeneID 34039),1,87161,4215,inactive
CtsL3 (GeneID 40741),1,69062,3638,inactive
TrpRS-m (GeneID 39989),1,70034,3961,inactive
Unc50 (GeneID 41029),1,1.46e5,6733,inactive
CG14086 (GeneID 40100),1,1.32e5,6952,inactive
ImpL2 (GeneID 38513),1,83480,4353,inactive
amos (GeneID 35110),1,96527,4060,inactive
CG9701 (GeneID 39872),1,73696,3591,inactive
kst (GeneID 38418),1,74192,3388,inactive
CG30148 (GeneID 37318),1,54048,3540,inactive
Gr28a (GeneID 117348),1,1.47e5,5395,inactive
CG32189 (GeneID 317902),1,1.45e5,3497,inactive
Su(z)12 (GeneID 48071),1,1.65e5,8269,inactive
CG13907 (GeneID 38104),1,81297,3474,inactive
CG17217 (GeneID 34644),1,1.01e5,4505,inactive
CG3349 (GeneID 39623),1,1.59e5,6980,inactive
CG8229 (GeneID 35898),1,3466,122,inactive
Sou (GeneID 37382),1,1.10e5,4873,inactive
Cp110 (GeneID 33136),1,1.57e5,5360,inactive
wcy (GeneID 32690),1,1.53e5,5699,inactive
Cpr47Ee (GeneID 36193),1,75384,3769,inactive
CG12259 (GeneID 43347),1,95231,5179,inactive
GLS (GeneID 36396),1,143,27,inactive
Mabi (GeneID 34727),1,1.10e5,4539,inactive
CG13075 (GeneID 39756),1,1.52e5,7836,inactive
Rab2 (GeneID 35577),1,81320,3538,inactive
Incenp (GeneID 35649),1,93892,3639,inactive
Eglp2 (GeneID 37737),1,84486,3444,inactive
sxc (GeneID 35486),1,1.08e5,4819,inactive
CG13511 (GeneID 37597),1,1.05e5,4861,inactive
Trs23 (GeneID 34197),1,1.44e5,5469,inactive
RnrL (GeneID 34392),1,54487,189,inactive
Sec61gamma (GeneID 32968),1,1.36e5,6392,inactive
CG31915 (GeneID 319025),1,1.47e5,5344,inactive
atk (GeneID 40266),1,81329,4157,inactive
atk (GeneID 40266),2,1.27e5,6651,inactive
Sbds (GeneID 38749),1,72118,3650,inactive
CG11529 (GeneID 39395),1,1.15e5,7292,inactive
ebd1 (GeneID 38082),1,87278,3580,inactive
CG4332 (GeneID 32267),1,8745,808,inactive
sws (GeneID 31716),1,60193,3594,inactive
sut1 (GeneID 35774),1,2825,189,inactive
PsGEF (GeneID 31224),1,1.06e5,5771,inactive
CG5214 (GeneID 41360),1,1.52e5,7368,inactive
